Data: US10173997B2, “Bipyridine compound and use of same for noxious arthropod control” (Sumitomo Chemical Company, Limited, priority 2015, dated 2019)
Some of these results come from one statement about several compounds together. At least one structure is not confirmed: it was looked up by name or label, or the drawing left a doubt.

Legend:
Type in all cases: in vivo
[1] = tested on: cotton aphid (Aphis gossypii); test: Test Example 1: cotton aphid on cucumber, foliar spray, 500 ppm; settings: 20 mL sprayed on cucumber seedling carrying aphids, after 6 days
[2] = tested on: cotton aphid (Aphis gossypii); test: Test Example 2: cotton aphid on cucumber, foliar spray, 200 ppm; settings: 20 mL sprayed on cucumber seedling carrying aphids, after 6 days
[3] = tested on: cotton aphid (Aphis gossypii); test: Test Example 3: cotton aphid on cucumber, irrigation into plant foot, 200 ppm; settings: 5 mL irrigated into plant foot of cucumber, aphids inoculated after 7 days, counted after additional 6 days
[4] = tested on: brown planthopper (Nilaparvata lugens); test: Test Example 4: brown planthopper on rice, foliar spray, 500 ppm; settings: 10 mL sprayed on rice seedling, 3rd to 4th instar larvae, after 6 days
[5] = tested on: brown planthopper (Nilaparvata lugens); test: Test Example 5: brown planthopper on rice, foliar spray, 200 ppm; settings: 10 mL sprayed on rice seedling, 3rd to 4th instar larvae, after 6 days
[6] = tested on: brown planthopper (Nilaparvata lugens); test: Test Example 6: brown planthopper on rice, irrigation into plant foot, 200 ppm; settings: 5 mL irrigated into plant foot of rice, larvae released after 7 days, counted after additional 6 days

Measured: controlling value

CCS(=O)(=O)c1cccnc1-c1ccc(OC(C)C(F)(F)F)cn1 (stereo not drawn) [compound 300]
≥ 90%: [1] | [2] | [3] | [4] | [5] | [6]
